These are yes or no findings as the source states them, for the method shown. In cells and extracts the contact can be indirect. Some binding calls cover weakened binding; strength is not graded here. Where a sequence is shown, tags or fusion partners need not be part of it.
Target: T1, CarD-FLAG (M. smegmatis) (UniProt A0R561)
T1 sequence: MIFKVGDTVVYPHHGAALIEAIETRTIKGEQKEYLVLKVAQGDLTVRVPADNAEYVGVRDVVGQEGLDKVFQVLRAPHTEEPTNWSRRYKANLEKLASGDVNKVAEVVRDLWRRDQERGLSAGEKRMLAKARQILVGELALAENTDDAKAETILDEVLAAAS
Assay: co-IP

B1: RbpA (protein, UniProt A0QZ11 1-114)
chain: MADRVLRGSRLGAVSYETDRNHDLAPRQVARYRTDNGEEFDVPFADDAEIPGTWLCRNGLEGTLIEGDVPEPKKVKPPRTHWDMLLERRSVEELEELLKERLDLIKAKRRGTGS
  binding: binds

From publication doi:10.1101/2024.12.02.626298
